Results as given in article PMC10782996.
For part of these data: Protein sequences can lack the tags named with them.

Assays:
Assay in all cases: EMSA
[1] = test system: Spo0A (Paenibacillus polymyxa SC2); settings: EMSA: Beyotime chemiluminescent EMSA kit buffer (composition and pH not stated), 10 uL, 20 min at room temperature, native PAGE in 0.5x TBE, 70 V for 70 min, recombinant protein, residues 1-267, label: 5'-biotin on forward strand, probe letters rebuilt from the primers and the genome
[2] = test system: T1, Abh (Paenibacillus polymyxa SC2); settings: EMSA: Beyotime chemiluminescent EMSA kit buffer (composition and pH not stated), 10 uL, 20 min at room temperature, native PAGE in 0.5x TBE, 70 V for 70 min, recombinant protein, residues 1-154, label: 5'-biotin on forward strand, probe letters rebuilt from the primers and the genome
T1 sequence (looked up): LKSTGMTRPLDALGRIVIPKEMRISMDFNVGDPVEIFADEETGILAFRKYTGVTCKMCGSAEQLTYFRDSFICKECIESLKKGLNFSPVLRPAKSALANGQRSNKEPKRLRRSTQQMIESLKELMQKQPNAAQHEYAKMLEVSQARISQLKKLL

[3] = test system: T2, AbrB3 (Paenibacillus polymyxa SC2); settings: EMSA: Beyotime chemiluminescent EMSA kit buffer (composition and pH not stated), 10 uL, 20 min at room temperature, native PAGE in 0.5x TBE, 70 V for 70 min, recombinant protein, residues 1-84, label: 5'-biotin on forward strand, probe letters rebuilt from the primers and the genome
T2 sequence (looked up): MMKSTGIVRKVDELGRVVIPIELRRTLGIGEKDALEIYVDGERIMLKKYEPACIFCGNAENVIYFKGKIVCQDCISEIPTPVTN

Measured: binding result

GATATCAGCTCCTTTAATATTCGGAATAATGGATTAAAATACAATAAAATCCTAAACATCTTCCCTTATTCGACACCGTTTGTCGTATTTTGTCGAATTATCACTTTTCGACATTTCCAAATCTACAATAAGACAAATCATCCGTAAAATAAGGTAAGGTACATGGATAAAGCTCTTTGTTCTAAATACTTTTGCATAATTAGGCTGTTACTACTTTTTTTAGGTTGACTGTTTTGGGAATCGTTGGTATAGTAAATATCAGAAAAGAGAAAATTTTGTCGAATCATGACACTTATATTATTTTAAACGGCGAGAGGAGCCTGATTTATT (double strand) [PabrB3]
binds: [1] | [2] | [3]; 0-6.3 uM protein, 11.5 nM DNA

AGACTGTCCCGTTCATGCCATACGGAGCATTCTTTGAGCCTCATGCAGACCCATCGTCACATCTAATCGTCAGGAAAAGCTCACTACCCCGCAGCCGTATCTTTACTTATCCACACCAGACGGGGGAATACACAAATCGTACATAGAGTGTATCAATATCCCTTAAACATAGGCTTCGACAAAGGCAGCTCCGGTGCCGAATCTGGAGGTACGGCCGACTTCCTGCTGGCCGGCCGGAACCCTACAGCAAGCCTTACATCGATGGGAGGAACATCCCTTGTCCACCCCCAAATCCAATTCCAAACCCAATGTTAAACCAAAGCCCGTCTTCGGGCGGCTCGTCCGCAGCAAGCATATTTAAGCACCCGCATCTCTTGCGTAGAACGATGCTCTTAGTTGTCTTTCACGCATAGCAGCCGAGCGGGACAGCTGCTAGGCAGAGGATTGCCGCATGCGATCAACCGGGCAAGCGAAGCGGTGACCTGGCGAAAGCCATTGACATTATTGTCAC (double strand) [Ppmx]
binds: [1]; 0-2.67 uM protein, 7.4 nM DNA | [2]; 0-6.8 uM protein, 7.4 nM DNA | [3]; 0-12.7 uM protein, 7.4 nM DNA
